Results from PMC10163288.
The other results are listed elsewhere or left out.

B1: il10ra_site1_sap_24_mot_HHH_b1_04100_af2_000000180_0001_1_19_H_._HHH_b2_06464_af2_0001_0000100002_0000002_0_0001_af2pred_dldesign_0_af2pred (protein)
chain: SSSSSDRAVARASIRYSLEAAKELEDEEARKLCIDQALKDAEALEDAELVAEVEAFRKEISSSSS
B2: il10ra_site1_normal_mot_HHH_b2_07245_000000008_0001_1_20_H_._HHH_b1_07746_0001_0000100004_0000001_1 (protein)
chain: SSSSSDEREEEARELLEEAKHIDDPRERIRVLLEALQLAYEANNRELLEEIWRVIKRLASSSSSS
B3: il10ra_site1_normal_mot_8756ee2cf497b5429c717dfc0c0bcfd6_0001_000000186_0001_1_13_H_._HHH_b2_06757_af2_0001_0000400020_0000001_0_af2pred_0001 (protein)
chain: SSSSSTAQAAQELVRLIREALKIEDEEEAKEVLEEAKELAEENNNLNVLAVLEYLLKLLSSSSSS
B4: il10ra_site1_normal_mot_HHH_b2_06497_000000202_0001_1_20_H_._HHH_b2_07621_af2_0001_0000700020_0000001_0_af2pred_0001 (protein)
chain: SSSSSSREELIREAVKLLHKAARIDDEEEVEELLRKVEEIAEQTNNPLLEHSVEAIKRALSSSSS
B5: il10ra_site1_sap_21_mot_HHH_b1_02397_af2_000000085_0001_39_57_H_._HHH_b2_07560_af2_0001_0000500016_0000001_0_0001 (protein)
chain: SSSSDEHYERLKELIERIVEALRRNDPEKVEELLRELEELIEENNNWSARFALEILEKQLSSSSS
B6: il10ra_site1_normal_mot_HHH_b2_00441_000000147_0001_1_18_H_._HHH_b1_06240_0001_0000100005_0000002_0 (protein)
chain: SSSSDLERYVELALRFVEALLKSGDPEAAELLARAILDVAEQNNNPELVEEIEELLEEVRKSSSS
B7: il10ra_site1_sap_11_mot_HHH_b2_05343_000000235_0001_19_35_H_._HHH_b2_02528_0001_0000100006_0000001_0_0001 (protein)
chain: SSSSSEEVYELLKEAIELLAEGNPEEARKVLEEARELAEEENNQVFRMQIEFLERLIERRSSSSS
B8: il10ra_site1_sap_27_mot_HHH_b1_08697_af2_000000298_0001_1_18_H_._HHH_b1_05552_0001_0000100007_0000001_1_0001 (protein)
chain: SERQRAIRIAFQRSDPEVLHALWELVHALARDPNNEEAREVLRLLIEALEEGDPEKVEEAVELAR
B9: il10ra_site1_normal_mot_HHH_b2_06497_000000202_0001_1_20_H_._HHH_b2_07621_af2_0001_0000700020_0000001_0 (protein)
chain: SSSSSSTRELNEEAYRLLRRAAEIDDEEEVEELLRKVEEIAEQTNNPILEFSVRAIRRALSSSSS
B10: il10ra_site1_sap_17_mot_65b8060e20531850bca9f2e11f97d954_0001_af2_000000137_0001_17_31_H_._HHH_b2_06821_0001_0000800089_0000001_0_0001_af2pred_0001 (protein)
chain: SSSSSSFERLIELSRRALELLRQGDKEEAREVLKEAEELAEELGDLYAEWALEAIERIINSSSSS
B11: il10ra_site1_sap_21_mot_HHH_b2_00886_000000053_0001_41_55_H_._HHH_b2_00886_0001_0000600064_0000001_0_0001 (protein)
chain: SSSSSEEEERVEELLEEAEHVTDPRELSRLLQEAVQLAFEAQNPELLRLVWRVVKKLGEKSSSSS
B12: il10ra_site1_sap_14_mot_HHH_b1_00456_000000263_0001_1_17_H_._HHH_b2_02299_0001_0000100002_0000001_0_0001 (protein)
chain: SSSSSDEEVRELLEEAEEARERGNPEEARRLLLEALRLIFQLRDPELLRQLWELVHKLFSSSSSS
B13: il10ra_site1_normal_mot_HHH_b1_05326_000000242_0001_1_20_H_._HHH_b1_06334_0001_0000100009_0000001_0 (protein)
chain: SSSSDILEEVLELSREAFRALLRGDPERVRELLERMEELLEELNDPAIKKAIENIELALNSSSSS
B14: il10ra_site1_sap_14_mot_d910f416147260c93593610934442136_0001_000000186_0001_34_49_H_._HHH_b1_06970_af2_0001_0000200018_0000001_0_0001 (protein)
chain: SSSSSSSLREAYELVEEAFEIEDPQEVRELLEEALELAEENNSWAFHFSIRHALEALRSSSSSSS
B15: il10ra_site1_sap_24_mot_HHH_b1_07527_000000076_0001_1_15_H_._HHH_b1_08233_0001_0000200013_0000001_0_0001 (protein)
chain: SSSSDVLERSVEFALKAAEELAKAGDPEAARALLEVLFRLLEEAGDPELLREVEELLEELSSSSS
B16: il10ra_site1_sap_23_mot_HHH_b2_00441_000000147_0001_1_18_H_._HHH_b2_03827_0001_0000100005_0000003_0_0001_af2pred_dldesign_0_af2pred (protein)
chain: SLDDELAARAAELGVPAAELAALRAEARRLAGGDERAALVILARLLNEAGLPELARIVSRAFLSS
B17: il10ra_site1_sap_19_mot_HHH_b2_00093_af2_000000025_0001_40_54_H_._5ea7f752dde0811aa0a69b69c7e6f7e7_0001_af2_0001_0000400018_0000001_0_0001 (protein)
chain: SSSSDVSRRIYELSREAMELLREGNPEEAEEVAEEARELAEEANDRIMLVQVEFVLRQINSSSSS
B18: il10ra_site1_normal_mot_HHH_b1_01693_000000146_0001_1_17_H_._HHH_b1_05536_af2_0001_0000300019_0000002_0_af2pred_0001 (protein)
chain: SSSSDEEEREEAQELLEEAKKIEDPEEILQVLAEAAILAARANDEELLKEILKLIVEKLRSSSSS
B19: il10ra_site1_normal_mot_HHH_b2_04679_000000194_0001_21_38_H_._HHH_b2_06224_0001_0000200020_0000002_0 (protein)
chain: SSSSSDEEIREEVEELIKRLEEVDTQEAYELLREAIELARELNDPRLFELVFRAVQEWLHSSSSS
B20: il10ra_site1_sap_15_mot_b26a303360aa2756ef5b79665ce52f45_0001_000000179_0001_1_11_H_._HHH_b2_00874_0001_0000200028_0000002_0_0001 (protein)
chain: SSSSDEEERVLELLLQAAQAFIEGNPEEVEKLLEEAEELAKESNNPELEEAVETAQRIMRNSSSS
B21: il10ra_site1_normal_mot_HHH_b1_06029_000000174_0001_1_17_H_._HHH_b2_05210_0001_0000300024_0000001_0_af2pred_0001 (protein)
chain: SSSSSESEALFRSARELVELLLEEGNEERARRTLRLIIELLELLGDEELAKRLQELLEEISSSSS
B22: il10ra_site1_sap_23_mot_HHH_b2_04656_000000137_0001_41_56_H_._HHH_b1_03237_0001_0000100002_0000001_0_0001 (protein)
chain: SSSSNEEAQELFELLRELVEAVREGDEEAVEEIFEEIEKLAREANNRLALLQAEFALKLFNSSSS
B23: il10ra_site1_normal_mot_b26a303360aa2756ef5b79665ce52f45_0001_000000179_0001_1_11_H_._HHH_b1_05166_0001_0000200030_0000001_0_af2pred_0001 (protein)
chain: SSSSSLAEEIKRIVEEIAELLREGNPEEAEKLAEEAIREVEERGNEIAAFNLRHLLKIVRSSSSS
B24: il10ra_site1_sap_7_mot_774d882d7ae63910a49ba8e2c216af69_0001_1_000000290_0001_18_33_H_._HHH_b1_08328_af2_0001_0000500012_0000001_0_0001 (protein)
chain: SSSSSEELKEEVEELLEEAKEIEDPRKANEVLTRALQLAIQLGDPELLRLVWRVFRELVKSSSSS
B25: il10ra_site1_normal_mot_HHH_b1_07641_af2_000000285_0001_1_21_H_._HHH_b2_08153_0001_0000100011_0000001_0_af2pred_0001 (protein)
chain: SSSSNEESERVMELLRRVAELLKEGNPEEAEELVQEALEIAEELGNLAAAFSARYLLELISSSSS
B26: il10ra_site1_normal_mot_b26a303360aa2756ef5b79665ce52f45_0001_000000179_0001_1_11_H_._HHH_b2_08001_af2_0001_0000700018_0000001_0_af2pred_dldesign_0_af2pred (protein)
chain: SSSSSSSTSQKIIELIKKASELEDKEEARKVLEEALALAKAANNPVFVHAVEYRLSLLSSSSSSS
B27: il10ra_site1_normal_mot_HHH_b2_01447_af2_000000258_0001_1_20_H_._HHH_b2_04530_0001_0000300019_0000002_0_af2pred_0001 (protein)
chain: SSSSSDVTEEVAELAEEVAELEREGDKEEAEEVLRKAKEIAEENNNYVFRVALEFLEEILSSSSS
B28: il10ra_site1_normal_mot_HHH_b1_04175_af2_000000064_0001_24_41_H_._HHH_b2_08305_0001_0000400044_0000001_0_af2pred_0001 (protein)
chain: SSSSDVEEEVRELLEEAKHIEDPREAAEVLLKALELAYKNNDPELIQLVAKVARELKEEDSSSSS
B29: il10ra_site1_normal_mot_HHH_b2_08186_000000021_0001_43_56_H_._HHH_b2_05168_af2_0001_0000100001_0000002_0 (protein)
chain: SSSSSDEEVKEEVERLLEEAEHVSEEEAIRLLLKALRIAYENKDEELLQEIWEVLKELASSSSSS
B30: il10ra_site1_normal_mot_HHH_b2_02337_000000026_0001_38_52_H_._HHH_b2_04776_0001_0000400041_0000001_0 (protein)
chain: SSSSSSEEEEEIEELLERLERAKSDEEISEVALRLARLIWEANNSELLRLLWEIVKKLASSSSSS
B31: il10ra_site1_normal_mot_HHH_b1_03353_af2_000000170_0001_1_18_H_._HHH_b2_01529_0001_0000100007_0000001_0 (protein)
chain: SSSSTEAYEVARRAIEEAAKLLREGDDEQAREVLEEAIRIAEELGNFAAVFALEHLLRVLRSSSS
B32: il10ra_site1_normal_mot_HHH_b2_00076_000000055_0001_40_55_H_._HHH_b1_05082_0001_0000800045_0000001_0 (protein)
chain: SSSSSEEERVEELLEEAKRIPDPREVARLLQEATHIALRAGNQELLQEIYRVFREIIEELSSSSS
B33: il10ra_site1_normal_mot_HHH_b2_02337_000000026_0001_38_52_H_._HHH_b2_02614_0001_0000400012_0000001_0 (protein)
chain: SSSSSEEEEESERLLRELEELLKEGDEERFIQVAQRAARFAFERSDQELLRAIWELVKKLSSSSS
B34: il10ra_site1_sap_18_mot_HHH_b1_04015_af2_000000074_0001_1_17_H_._HHH_b1_07192_0001_0000100001_0000001_0_0001 (protein)
chain: SSSSSEEEEEIEELLEEAERLYKEGDPEEAIRLLLKATQLAIHAKNAELLRKVWRVFKELSSSSS
B35: il10ra_site1_normal_mot_HHH_b1_00456_000000263_0001_1_17_H_._HHH_b2_05371_0001_0000100004_0000001_0_af2pred_0001 (protein)
chain: SSSSSEIEEEVERLLEEAKHIEDPHERWEVLLKAFLLALKNNDEELKEEVKKVAKELTEGSSSSS
B36: il10ra_site1_sap_29_mot_HHH_b1_05426_000000183_0001_42_56_H_._HHH_b1_07722_af2_0001_0000100004_0000001_0_0001 (protein)
chain: SSSSSEEERVEELLEEVEELKKEGDEEEAIRVLQEAVRLAHQISDEELLREIWRLAKELGSSSSS
B37: il10ra_site1_normal_mot_HHH_b1_05357_000000034_0001_23_39_H_._HHH_b2_01646_0001_0000500028_0000001_0_af2pred_0001 (protein)
chain: SSSSSDEEEIREEVERLLEEAKHVSEHESAYLLIRAYALAYRGNDPELEELVKEVAIKLVSSSSS

target: il10ra, Q13651; assay: yeast display titration

Apparent Kd, inactive:
B1 no binding seen
B2 no binding seen
B3 no binding seen
B4 no binding seen
B5 no binding seen
B6 no binding seen
B7 no binding seen
B8 no binding seen
B9 no binding seen
B10 no binding seen
B11 no binding seen
B12 no binding seen
B13 no binding seen
B14 no binding seen
B15 no binding seen
B16 no binding seen
B17 no binding seen
B18 no binding seen
B19 no binding seen
B20 no binding seen
B21 no binding seen
B22 no binding seen
B23 no binding seen
B24 no binding seen
B25 no binding seen
B26 no binding seen
B27 no binding seen
B28 no binding seen
B29 no binding seen
B30 no binding seen
B31 no binding seen
B32 no binding seen
B33 no binding seen
B34 no binding seen
B35 no binding seen
B36 no binding seen
B37 no binding seen

An excerpt of the results above:
Apparent Kd, inactive:
B2 no binding seen
B3 no binding seen
B4 no binding seen
B5 no binding seen
B6 no binding seen
B7 no binding seen
B8 no binding seen
